The values below come from patent publication US12629410B2 (priority 2019, dated 2026).

The data set in a line: general procedure: hybrid (solid and solution phase) peptide synthesis; Fmoc-Lys-Wang resin; symmetric anhydride (bromoacetic acid); diphenylphosphoryl azide (core); NHS est. To be noted: for difficulty met: whole synthesis.
[1] abbreviates: conjugation step, analytical RP-HPLC.

For “(CGPIPVLDENGLFAPGPC)4(Lys)2Lys-β-Ala-COOH”, the difficulty met result is “This resulted in a heterogenous preparation”. Consider “Ac-β-Ala-Glu[Glu(OSu)2]2 core linked to 4 x cyclic thioether peptide mimic Core Peptide 2 (GPIPVLDENGLFAPGPC; thioether cyclized, tetrameric MAP)”, for which, under setting [1], the “final HPLC purity” value is reported as 99% of the total area and the “final purity (method not given)” value was greater than 95%. On to “(CGPIPVLDENGLFAPGPC)8(Lys)4(Lys)2Lys-β-Ala-COOH”, for which the difficulty met entry was “yielded a heterogeneous compound because of reversible disulfide bonding”. As for “Br-Ac-Gly-Pro-Ile-Pro-Val-Leu-Asp-Glu-Asn-Gly-Leu-Phe-Ala-Pro-Gly-Pro-Cys-Lys-OH (GPIPVLDENGLFAPGPC; thioether cyclized, C-terminal Lys)”, for the setting “cyclisation step, analytical RP-HPLC”, the “final HPLC purity” value was greater than 90%.
